Test: general procedure: Fmoc solid-phase peptide synthesis; Rink AM Resin (loading 0.6 mmol/g); carbodiimide reagents (DCC preferred); EDCI/HOBt for solution-phase examples

tert-butyl ((9S,12S,15R,18S)-9-carbamoyl-15-(3-guanidinopropyl)-3,11,14,17-tetraoxo-1,19-diphenyl-12-((tetrahydro-2H-pyran-4-yl)methyl)-2-oxa-4,10,13,16-tetraazanonadecan-18-yl)carbamate
final purity (method not given) (coupling step, HPLC): 85%

Phe-D-Arg-(2-Methyl)-Phe-Lys-NH2
final HPLC purity (whole synthesis, HPLC, scale of the general procedure 10 g of resin): 99.0%

(β-Admantan-1-yl)-Ala-D-Arg-Phe-Lys-NH2
final HPLC purity (late stage modification step, 210 nm): 95.4%

Reference: US12404300 (dated 2025)
